PubChem BioAssay (EPA / NIEHS)
For some assays here: Shown are results outside the selection of hits, which stands elsewhere. The entries are a selection whose mix differs from that of the whole data set. Records with an inconclusive call do not appear. Active and inactive are the calls of the source. How the source made its calls, unless noted: active means hit-call score of the fitted dose curve at least 0.9, where 1 is the maximum; inactive means score below 0.9.

The chains behind the UniProt entries cited, without tags or fusion partners. Where a name states a change or a piece, a line headed by the entry shows the natural chain unless it says otherwise.
UniProt P11473: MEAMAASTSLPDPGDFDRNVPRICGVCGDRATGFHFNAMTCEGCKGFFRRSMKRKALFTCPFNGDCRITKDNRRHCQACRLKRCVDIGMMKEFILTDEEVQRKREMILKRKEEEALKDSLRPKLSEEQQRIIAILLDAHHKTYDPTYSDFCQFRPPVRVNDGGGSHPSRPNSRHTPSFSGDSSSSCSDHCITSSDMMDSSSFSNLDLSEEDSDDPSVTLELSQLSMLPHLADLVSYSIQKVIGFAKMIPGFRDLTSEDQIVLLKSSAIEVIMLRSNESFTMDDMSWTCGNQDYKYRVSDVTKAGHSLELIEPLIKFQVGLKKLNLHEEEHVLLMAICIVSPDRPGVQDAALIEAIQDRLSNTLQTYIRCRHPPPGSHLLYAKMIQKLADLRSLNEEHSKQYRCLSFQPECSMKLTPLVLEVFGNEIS
UniProt Q5TCH4: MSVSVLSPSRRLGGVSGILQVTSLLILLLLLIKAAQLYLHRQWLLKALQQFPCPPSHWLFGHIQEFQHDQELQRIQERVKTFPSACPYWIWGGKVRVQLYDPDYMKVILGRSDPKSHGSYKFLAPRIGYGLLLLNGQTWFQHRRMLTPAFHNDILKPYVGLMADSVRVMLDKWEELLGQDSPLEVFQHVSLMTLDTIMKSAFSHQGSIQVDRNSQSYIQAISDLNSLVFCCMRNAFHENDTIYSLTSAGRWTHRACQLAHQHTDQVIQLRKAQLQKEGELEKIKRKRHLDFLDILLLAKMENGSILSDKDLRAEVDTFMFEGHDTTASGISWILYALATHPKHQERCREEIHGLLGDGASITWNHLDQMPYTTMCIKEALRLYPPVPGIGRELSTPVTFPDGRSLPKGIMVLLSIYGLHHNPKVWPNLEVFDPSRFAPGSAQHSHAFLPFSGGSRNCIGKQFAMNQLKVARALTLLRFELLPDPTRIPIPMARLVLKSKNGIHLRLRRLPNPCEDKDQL
UniProt P22680: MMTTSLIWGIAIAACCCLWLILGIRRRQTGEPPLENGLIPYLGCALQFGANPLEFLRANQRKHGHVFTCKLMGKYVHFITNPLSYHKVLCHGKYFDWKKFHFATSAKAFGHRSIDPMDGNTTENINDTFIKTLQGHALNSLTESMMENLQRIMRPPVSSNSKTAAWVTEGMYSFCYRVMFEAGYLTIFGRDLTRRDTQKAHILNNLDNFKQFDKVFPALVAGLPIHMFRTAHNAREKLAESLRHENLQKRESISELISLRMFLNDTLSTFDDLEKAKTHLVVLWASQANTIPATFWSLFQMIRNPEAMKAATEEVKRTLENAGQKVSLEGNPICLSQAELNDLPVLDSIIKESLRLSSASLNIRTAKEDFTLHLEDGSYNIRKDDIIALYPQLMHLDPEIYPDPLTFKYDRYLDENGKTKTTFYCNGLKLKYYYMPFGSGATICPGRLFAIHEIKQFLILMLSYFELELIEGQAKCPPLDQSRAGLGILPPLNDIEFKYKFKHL
UniProt P01375, whole entry, looked up: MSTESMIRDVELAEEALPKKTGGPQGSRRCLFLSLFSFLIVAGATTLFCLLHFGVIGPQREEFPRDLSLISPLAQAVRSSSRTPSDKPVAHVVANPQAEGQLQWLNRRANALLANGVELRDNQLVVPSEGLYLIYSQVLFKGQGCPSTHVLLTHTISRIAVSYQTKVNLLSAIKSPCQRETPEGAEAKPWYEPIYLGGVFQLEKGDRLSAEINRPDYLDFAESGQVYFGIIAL

How the values were obtained:
[1] = molecular target: human Vitamin D Receptor (VDR), VDR (gene 7421) (UniProt P11473); experiment: ATG_VDR_TRANS: Attagene TRANS-FACTORIAL HepG2 Assay for human Vitamin D Receptor (VDR) (AID 2283022; active means hit-call score of the fitted dose curve at least 0.9, where 1 is the maximum)
How it was run: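 RT-PCR/capillary electrophoresis read-out of reporter mRNA induction in transiently transfected HepG2; 24 h dosing; chimeric NR-Gal4 (TRANS format); gain-of-signal fit against DMSO baseline.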

[2] = BSK_CASM3C_SRB: Viability Assessment in the BioMAP Diversity Plus: CASM3C Assay (AID 2283050); settings: primary human coronary artery smooth muscle cells
[3] = read-out: Interleukin-1 alpha (IL1a), IL1A (gene 3552); experiment: BSK_BE3C_IL1a: BioMAP Diversity Plus: BE3C Assay for Interleukin-1 alpha (IL1a) Biomarker Activity (AID 2283016); settings: actives raise or lower the signal; primary human bronchial epithelial cells
How it was run: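 Human primary bronchial epithelial cells, 24 h chemical exposure; IL-1a quantified by ELISA, fitted bidirectionally against DMSO. Cytotoxicity assessed in parallel by SRB total-protein staining at the time of measurement.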

[4] = BSK_3C_Vis: BioMAP Diversity Plus: 3C Assay for Morphology Visualization (AID 2283025); settings: primary human endothelial cells (HUVEC);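 further: light microscopy image of cell morphology used as background control; fitted both ways so gain or loss versus DMSO counts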
How it was run: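 Human umbilical vein endothelial cell morphology was inspected by light microscopy 24 h after chemical dosing; scored bidirectionally relative to DMSO.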

[5] = read-out: Urokinase-type plasminogen activator receptor (uPAR), PLAUR (gene 5329); experiment: BSK_4H_uPAR: BioMAP Diversity Plus: 4H Assay for Urokinase-type plasminogen activator receptor (uPAR) Biomarker Activity (AID 2283030); settings: actives raise or lower the signal; primary human endothelial cells (HUVEC)
How it was run: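 HUVEC, 24 h post-dose; uPAR by ELISA; bidirectional fit vs DMSO baseline.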

[6] = read-out: Interferon-gamma inducible Protein 10 (IP10), CXCL10 (gene 3627); experiment: BSK_BE3C_IP10: BioMAP Diversity Plus: BE3C Assay for Interferon-gamma inducible Protein 10 (IP10) Biomarker Activity (AID 2283034); settings: actives raise or lower the signal; primary human bronchial epithelial cells
How it was run: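 Primary human bronchial epithelial cells, with IP-10 measured by ELISA 24 hours after chemical dosing. Bidirectional fit against DMSO; cytotoxicity checked by SRB total protein staining in parallel cultures.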

[7] = read-out: Transforming growth factor beta 1 (TGFb1), TGFB1 (gene 7040); experiment: BSK_BE3C_TGFb1: BioMAP Diversity Plus: BE3C Assay for Transforming growth factor beta 1 (TGFb1) Biomarker Activity (AID 2283036); settings: actives raise or lower the signal; primary human bronchial epithelial cells
How it was run: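 Primary human bronchial epithelial cells dosed with chemical; TGF-b1 measured by ELISA 24 h after dosing. Bidirectional curve fitting against DMSO negative control; SRB total-protein staining in parallel cultures gauged cytotoxicity.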

[8] = read-out: urokinase plasminogen activator (uPA), PLAU (gene 5328); experiment: BSK_BE3C_uPA: BioMAP Diversity Plus: BE3C Assay for urokinase plasminogen activator (uPA) Biomarker Activity (AID 2283038); settings: actives raise or lower the signal; primary human bronchial epithelial cells;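 further: uPA protein level quantified by ELISA in cell cultures; uPA read one day after compound addition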
How it was run: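 ELISA read-out of uPA in human lung primary bronchial epithelial cultures, 24 h post-dosing. Gain or loss of signal fitted bidirectionally relative to DMSO baseline; cytotoxicity checked in parallel cultures via SRB total protein stain.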

[9] = read-out: Collagen III, COL3A1 (gene 1281); experiment: BSK_hDFCGF_CollagenIII: BioMAP Diversity Plus: hDFCGF Assay for Collagen III Biomarker Activity (AID 2283056); settings: actives raise or lower the signal; primary human foreskin fibroblasts
How it was run: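 hDFCGF primary human dermal fibroblasts; 24 h chemical exposure; collagen III by ELISA; bidirectional curve fit vs DMSO baseline (gain or loss of signal).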

[10] = read-out: Plasminogen activator inhibitor-1 (PAI1), SERPINE1 (gene 5054); experiment: BSK_hDFCGF_PAI1: BioMAP Diversity Plus: hDFCGF Assay for Plasminogen activator inhibitor-1 (PAI1) Biomarker Activity (AID 2283066); settings: actives raise or lower the signal; primary human foreskin fibroblasts
How it was run: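 Human foreskin fibroblast primary cells, 24 h chemical exposure; PAI-1 measured by ELISA. Bidirectional fitting relative to DMSO; parallel cultures stained with SRB for total protein to flag overt cytotoxicity.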

CD69, CD69 (gene 969) = experiment: BSK_SAg_CD69: BioMAP Diversity Plus: SAg Assay for CD69 Biomarker Activity (AID 2283089); settings: actives raise or lower the signal; primary human HUVEC with PBMC;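 further: cell surface CD69 protein quantified by ELISA with fluorescence detection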
How it was run: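 HUVEC co-cultured with PBMC were dosed with chemical, and CD69 was measured by ELISA with fluorescence read-out 24 h later. Bidirectional curve fitting used DMSO as negative control and activity baseline.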

[11] = read-out: Interleukin-8 (IL8), CXCL8 (gene 3576); experiment: BSK_SAg_IL8: BioMAP Diversity Plus: SAg Assay for Interleukin-8 (IL8) Biomarker Activity (AID 2283094); settings: actives raise or lower the signal; primary human HUVEC with PBMC
How it was run: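 Human umbilical vein endothelial cells co-cultured with PBMC, stimulated with superantigen; IL-8 measured by ELISA 24 h after chemical dosing. Bidirectional fitting versus DMSO; SRB staining in parallel cultures tracks cytotoxicity.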

[12] = BSK_SAg_Proliferation: Cell Proliferation Assessment in the BioMAP Diversity Plus: SAg Assay (AID 2283095); settings: primary human HUVEC with PBMC
How it was run: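 Human umbilical vein endothelial cells co-cultured with PBMC; sulforhodamine B total-protein staining (0.1% SRB after 10% TCA fixation, absorbance 560 nm) at 96 h in sub-confluent culture. Fitted bidirectionally against DMSO.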

[13] = read-out: Cytochrome P450 (CYP1A1), CYP1A1 (gene 1543); experiment: LTEA_HepaRG_CYP1A1: Life Technologies and Expression Analysis (LTEA) Assay for Cytochrome P450 (CYP1A1) using HepaRG (AID 2283454); settings: actives raise or lower the signal; mRNA level, 48 h
How it was run: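 qRT-PCR read-out: CYP1A1 transcript normalized to three housekeeping genes, fitted bidirectionally against 0.5% DMSO vehicle baseline. Human HepaRG cells, 48 h chemical exposure, 8-point half-log series topping at 100 uM.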

[14] = read-out: ATP-citrate lyase (ACLY), ACLY (gene 47); experiment: LTEA_HepaRG_ACLY: Life Technologies and Expression Analysis (LTEA) Assay for ATP-citrate lyase (ACLY) using HepaRG (AID 2283466); settings: actives raise or lower the signal; mRNA level, 48 h
How it was run: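 HepaRG, 48 h exposure, 8-pt half-log dilutions (top 100 uM), 0.5% DMSO. Readout: ACLY mRNA, TaqMan qRT-PCR, housekeeping-normalized (ACTB/GAPDH/POLR2A). Bidirectional curve fit vs DMSO.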

CYP3A5 (gene 1577) = experiment: LTEA_HepaRG_CYP3A5: Life Technologies and Expression Analysis (LTEA) Assay for CYP3A5 using HepaRG (AID 2283493); settings: actives raise or lower the signal; mRNA level, 48 h
How it was run: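 HepaRG cells, plated 48 h then in serum-free induction medium, dosed in duplicate for 48 h with eight half-log concentrations up to 100 uM in 0.5% DMSO. Gene mRNA by Fluidigm TaqMan qRT-PCR, normalized to ACTB, GAPDH, POLR2A.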

[15] = read-out: Fatty Acid-Binding Protein 1 (FABP1), FABP1 (gene 2168); experiment: LTEA_HepaRG_FABP1: Life Technologies and Expression Analysis (LTEA) Assay for Fatty Acid-Binding Protein 1 (FABP1) using HepaRG (AID 2283494); settings: actives raise or lower the signal; mRNA level, 48 h
How it was run: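 HepaRG, 48 h post-plating switched to serum-free induction medium, then dosed 48 h (duplicate, 8 pts, ≤100 uM, 0.5% DMSO). RNA → Fluidigm TaqMan qRT-PCR, FABP1 normed to ACTB/GAPDH/POLR2A. Bidirectional curve fit vs DMSO.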

[16] = read-out: Cytochrome P450 4A22 (Homo sapiens) (UniProt Q5TCH4); experiment: LTEA_HepaRG_CYP4A22: Life Technologies and Expression Analysis (LTEA) Assay for Cytochrome P450 4A22 (CYP4A22) using HepaRG (AID 2283495); settings: actives raise or lower the signal; mRNA level, 48 h
How it was run: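 HepaRG, 48 h post-plating -> serum-free induction medium; dosed 48 h, duplicate, 8 conc. (100 uM top, half-log), 0.5% DMSO. Readout: CYP4A22 mRNA by qRT-PCR, ACTB/GAPDH/POLR2A normalization; gain/loss fit relative to DMSO.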

[17] = read-out: Cytochrome P450 7A1 (Homo sapiens) (UniProt P22680); experiment: LTEA_HepaRG_CYP7A1: Life Technologies and Expression Analysis (LTEA) Assay for Cytochrome P450 7A1 (CYP7A1) using HepaRG (AID 2283496); settings: actives raise or lower the signal; mRNA level, 48 h
How it was run: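 HepaRG cells plated 48 h, then switched to serum-free induction medium and exposed in duplicate for 48 h to 8-point half-log series from 100 uM in 0.5% DMSO. CYP7A1 mRNA by qRT-PCR (TaqMan), normalized to ACTB/GAPDH/POLR2A; bidirectional fit versus DMSO.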

[18] = read-out: Paternally Expressed 10 (PEG10), PEG10 (gene 23089); experiment: LTEA_HepaRG_PEG10: Life Technologies and Expression Analysis (LTEA) Assay for Paternally Expressed 10 (PEG10) using HepaRG (AID 2283520); settings: actives raise or lower the signal; mRNA level, 48 h
How it was run: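 Differentiated HepaRG cells exposed 48 h in serum-free induction medium to eight half-log concentrations topping at 100 uM, 0.5% DMSO, in duplicate. PEG10 mRNA quantified by TaqMan qRT-PCR, normalized to ACTB, GAPDH and POLR2A; bidirectional fit versus DMSO.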

[19] = STM_H9_CystineISnorm_perc: Stemina devTOX quickPredict H9 human embryonic stem cell (hESC)-based Assay for Cystine (CYSS) Metabolite Biomarker, Normalized (AID 2283713)
How it was run: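 Undifferentiated H9 hESCs exposed 72 h, compound and media replaced every 24 h; final 24-h media analysed by UPLC-HRMS. Cystine normalized to C13 spike-in standard and median 0.1% DMSO control.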

[20] = CCTE_Harrill_HTTr_Viability_PRF_DMEM_24hr: (Pilot) CCTE's 24-hour Cell Viability Assessment for the High-Throughput Transcriptomics (HTTr) Platform, in MCF-7 cells cultured in phenol red-free DMEM + 10% charcoal-stripped fetal bovine serum, Harrill Lab (AID 2283980)
How it was run: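 MCF-7 cells in phenol red-free DMEM with 10% charcoal-stripped FBS, eight-point dilution series, 24 h exposure. Membrane integrity by propidium iodide exclusion with high content imaging; bidirectional fit vs DMSO.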

[21] = CCTE_Harrill_HTTr_Apoptosis_PRF_DMEM_12hr: (Pilot) CCTE's 12-hour Apoptosis Assessment for the High-Throughput Transcriptomics (HTTr) Platform, in MCF-7 cells cultured in phenol red-free DMEM + 10% charcoal-stripped fetal bovine serum, Harrill Lab (AID 2283985)
How it was run: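 MCF-7 cells in phenol red-free DMEM with 10% charcoal-stripped FBS, eight-point dilution series, 12 h exposure. Caspase-3/7 activation imaged by high content imaging with CellEvent Green reagent; bidirectional fit vs DMSO.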

[22] = CCTE_Shafer_MEA_dev_network_spike_number: CCTE's Neural Network Formation Assay for Number of Network Spikes, Shafer Lab (AID 2284048);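 further: synchronized bursts across electrodes counted on days 5 7 9 12 and integrated as AUC; fit as a loss of signal meaning fewer network spikes than DMSO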
How it was run: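 Developing networks of primary rat cortical neurons are treated over 12 days starting at plating, with media and compound fully replaced on DIV 5 and 9. Network spike counts from four recording days are integrated as trapezoidal AUC.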

[23] = read-out: Matrix Metallopeptidase 1 (MMP1), MMP1 (gene 4312); experiment: BSK_BE3C_MMP1: BioMAP Diversity Plus: BE3C Assay for Matrix Metallopeptidase 1 (MMP1) Biomarker Activity (AID 2283024); settings: actives raise or lower the signal; primary human bronchial epithelial cells
How it was run: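 Human primary bronchial epithelial cells (BE3C system) dosed for 24 h; MMP-1 quantified by ELISA. Bidirectional fit against DMSO; cytotoxicity tracked in parallel cultures by SRB total-protein staining.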

[24] = read-out: Tumor necrosis factor (Homo sapiens) (UniProt P01375); experiment: BSK_LPS_TNFa: BioMAP Diversity Plus: LPS Assay for Tumour Necrosis Factor alpha (TNFa) Biomarker Activity (AID 2283085); settings: actives raise or lower the signal; primary human HUVEC with PBMC;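 further: TNFa protein level quantified by ELISA in the co-culture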
How it was run: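 Human umbilical vein endothelial cells co-cultured with PBMC and stimulated with LPS. TNFa was measured by ELISA 24 h after chemical dosing, fitted bidirectionally relative to DMSO.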

Measured: AC50

CN(C)c1ccc(C(c2ccccc2)c2ccc(N(C)C)cc2)cc1
inactive: [1]
active: [2] 15.9 µM

COC(=O)[C@H]1[C@H]2C[C@@H]3c4[nH]c5cc(OC)ccc5c4CCN3C[C@H]2C[C@@H](OC(=O)c2cc(OC)c(OC)c(OC)c2)[C@@H]1OC
active: [4] 11.6 µM | [5] 7.72 µM | CD69, CD69 (gene 969) 21.4 µM | [11] 16.9 µM | [12] 21 µM | [13] 13.7 µM | CYP3A5 (gene 1577) 67.4 µM | [15] 63.7 µM | [16] 50.4 µM | [17] 60.9 µM | [22] 8.75 µM
not listed: [1] | [2] | [23] | [24]
inactive: all other assays above

O=C(CCCCCCCCc1cccnc1)N1CCC(C=C(c2ccccc2)c2ccccc2)CC1
active: [23] 33.4 µM | [24] 16.1 µM
